Experimental data from the supplement of paper PMC6411743.
± gives the standard deviation of the averaged measurements. Only a part is listed here, and it is no random draw. Most entries show no effect beyond the scatter of the controls.

Sequences of proteins named here, by UniProt entry; tags and fusion partners are left off. A change or cut given only in a name is not applied to a line headed by its entry.
UniProt O43924: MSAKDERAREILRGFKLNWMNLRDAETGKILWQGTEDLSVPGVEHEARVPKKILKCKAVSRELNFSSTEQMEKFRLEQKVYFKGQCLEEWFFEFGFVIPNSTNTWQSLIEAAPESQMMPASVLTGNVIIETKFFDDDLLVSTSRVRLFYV
UniProt O75558: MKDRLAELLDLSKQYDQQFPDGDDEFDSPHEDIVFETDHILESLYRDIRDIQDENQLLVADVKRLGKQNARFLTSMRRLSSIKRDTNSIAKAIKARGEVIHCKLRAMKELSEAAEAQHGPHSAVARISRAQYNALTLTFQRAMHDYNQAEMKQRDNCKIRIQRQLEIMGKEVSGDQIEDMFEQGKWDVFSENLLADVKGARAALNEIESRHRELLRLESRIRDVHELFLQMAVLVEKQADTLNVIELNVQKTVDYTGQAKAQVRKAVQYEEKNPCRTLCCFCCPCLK
UniProt O60566, whole entry: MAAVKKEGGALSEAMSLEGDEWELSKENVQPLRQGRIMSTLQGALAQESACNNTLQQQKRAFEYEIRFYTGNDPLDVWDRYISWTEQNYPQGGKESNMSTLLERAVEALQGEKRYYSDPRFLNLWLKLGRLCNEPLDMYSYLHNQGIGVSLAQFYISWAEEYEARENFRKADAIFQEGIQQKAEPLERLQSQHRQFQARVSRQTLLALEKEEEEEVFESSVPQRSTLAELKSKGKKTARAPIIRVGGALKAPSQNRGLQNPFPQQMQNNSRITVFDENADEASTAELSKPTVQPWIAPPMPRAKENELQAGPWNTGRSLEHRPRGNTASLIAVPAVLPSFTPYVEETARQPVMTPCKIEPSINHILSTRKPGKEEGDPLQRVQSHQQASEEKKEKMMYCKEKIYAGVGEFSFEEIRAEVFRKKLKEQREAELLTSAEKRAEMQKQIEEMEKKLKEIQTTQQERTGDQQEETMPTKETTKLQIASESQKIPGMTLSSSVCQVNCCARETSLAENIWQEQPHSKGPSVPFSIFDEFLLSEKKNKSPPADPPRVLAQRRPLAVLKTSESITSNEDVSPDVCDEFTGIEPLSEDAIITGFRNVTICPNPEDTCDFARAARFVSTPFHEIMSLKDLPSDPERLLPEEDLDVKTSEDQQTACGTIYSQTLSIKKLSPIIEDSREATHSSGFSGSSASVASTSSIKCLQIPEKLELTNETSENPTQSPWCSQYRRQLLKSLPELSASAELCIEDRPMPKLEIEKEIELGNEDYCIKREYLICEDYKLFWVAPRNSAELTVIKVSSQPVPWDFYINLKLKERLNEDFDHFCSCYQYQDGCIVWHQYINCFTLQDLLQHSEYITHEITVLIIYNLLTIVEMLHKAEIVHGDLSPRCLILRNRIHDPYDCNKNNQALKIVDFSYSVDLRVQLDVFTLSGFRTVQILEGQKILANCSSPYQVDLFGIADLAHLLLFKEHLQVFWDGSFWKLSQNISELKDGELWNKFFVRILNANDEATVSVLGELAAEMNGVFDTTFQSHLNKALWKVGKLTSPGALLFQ
UniProt O95630, whole entry: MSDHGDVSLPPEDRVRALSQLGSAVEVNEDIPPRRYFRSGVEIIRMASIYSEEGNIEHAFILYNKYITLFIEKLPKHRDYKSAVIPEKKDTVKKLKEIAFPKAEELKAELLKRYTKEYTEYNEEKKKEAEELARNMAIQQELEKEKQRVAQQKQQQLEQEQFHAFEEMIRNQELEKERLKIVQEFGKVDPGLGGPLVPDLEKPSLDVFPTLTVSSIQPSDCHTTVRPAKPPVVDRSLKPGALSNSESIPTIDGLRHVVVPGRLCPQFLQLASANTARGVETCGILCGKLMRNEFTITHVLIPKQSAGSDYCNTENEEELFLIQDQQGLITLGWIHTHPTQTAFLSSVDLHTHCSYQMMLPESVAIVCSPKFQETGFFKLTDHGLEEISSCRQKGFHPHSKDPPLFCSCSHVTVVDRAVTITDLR
UniProt O94888: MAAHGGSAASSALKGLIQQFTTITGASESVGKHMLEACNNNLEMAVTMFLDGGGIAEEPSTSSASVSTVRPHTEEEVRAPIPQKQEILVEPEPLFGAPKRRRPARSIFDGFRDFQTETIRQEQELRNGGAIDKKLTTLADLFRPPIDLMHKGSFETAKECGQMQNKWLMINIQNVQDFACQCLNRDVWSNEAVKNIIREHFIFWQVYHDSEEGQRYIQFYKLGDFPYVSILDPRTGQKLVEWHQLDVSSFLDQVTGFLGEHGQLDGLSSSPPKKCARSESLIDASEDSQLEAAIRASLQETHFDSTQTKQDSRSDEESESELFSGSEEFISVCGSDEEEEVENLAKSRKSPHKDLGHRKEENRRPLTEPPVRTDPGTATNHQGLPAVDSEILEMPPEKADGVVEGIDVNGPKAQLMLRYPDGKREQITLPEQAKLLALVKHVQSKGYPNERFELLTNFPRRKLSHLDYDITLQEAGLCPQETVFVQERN
UniProt O95363: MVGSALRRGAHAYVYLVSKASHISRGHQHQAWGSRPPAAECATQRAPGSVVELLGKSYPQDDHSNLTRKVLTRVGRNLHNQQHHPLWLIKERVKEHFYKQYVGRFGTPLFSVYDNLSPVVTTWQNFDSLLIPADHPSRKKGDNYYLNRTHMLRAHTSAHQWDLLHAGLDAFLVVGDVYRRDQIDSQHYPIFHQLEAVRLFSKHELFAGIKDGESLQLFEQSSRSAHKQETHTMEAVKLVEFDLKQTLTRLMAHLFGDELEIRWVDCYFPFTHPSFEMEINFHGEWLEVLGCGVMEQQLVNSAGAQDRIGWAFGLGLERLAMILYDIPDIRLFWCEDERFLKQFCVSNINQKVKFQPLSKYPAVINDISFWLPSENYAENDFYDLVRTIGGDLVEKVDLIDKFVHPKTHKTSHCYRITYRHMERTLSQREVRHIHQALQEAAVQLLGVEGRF
UniProt O75179: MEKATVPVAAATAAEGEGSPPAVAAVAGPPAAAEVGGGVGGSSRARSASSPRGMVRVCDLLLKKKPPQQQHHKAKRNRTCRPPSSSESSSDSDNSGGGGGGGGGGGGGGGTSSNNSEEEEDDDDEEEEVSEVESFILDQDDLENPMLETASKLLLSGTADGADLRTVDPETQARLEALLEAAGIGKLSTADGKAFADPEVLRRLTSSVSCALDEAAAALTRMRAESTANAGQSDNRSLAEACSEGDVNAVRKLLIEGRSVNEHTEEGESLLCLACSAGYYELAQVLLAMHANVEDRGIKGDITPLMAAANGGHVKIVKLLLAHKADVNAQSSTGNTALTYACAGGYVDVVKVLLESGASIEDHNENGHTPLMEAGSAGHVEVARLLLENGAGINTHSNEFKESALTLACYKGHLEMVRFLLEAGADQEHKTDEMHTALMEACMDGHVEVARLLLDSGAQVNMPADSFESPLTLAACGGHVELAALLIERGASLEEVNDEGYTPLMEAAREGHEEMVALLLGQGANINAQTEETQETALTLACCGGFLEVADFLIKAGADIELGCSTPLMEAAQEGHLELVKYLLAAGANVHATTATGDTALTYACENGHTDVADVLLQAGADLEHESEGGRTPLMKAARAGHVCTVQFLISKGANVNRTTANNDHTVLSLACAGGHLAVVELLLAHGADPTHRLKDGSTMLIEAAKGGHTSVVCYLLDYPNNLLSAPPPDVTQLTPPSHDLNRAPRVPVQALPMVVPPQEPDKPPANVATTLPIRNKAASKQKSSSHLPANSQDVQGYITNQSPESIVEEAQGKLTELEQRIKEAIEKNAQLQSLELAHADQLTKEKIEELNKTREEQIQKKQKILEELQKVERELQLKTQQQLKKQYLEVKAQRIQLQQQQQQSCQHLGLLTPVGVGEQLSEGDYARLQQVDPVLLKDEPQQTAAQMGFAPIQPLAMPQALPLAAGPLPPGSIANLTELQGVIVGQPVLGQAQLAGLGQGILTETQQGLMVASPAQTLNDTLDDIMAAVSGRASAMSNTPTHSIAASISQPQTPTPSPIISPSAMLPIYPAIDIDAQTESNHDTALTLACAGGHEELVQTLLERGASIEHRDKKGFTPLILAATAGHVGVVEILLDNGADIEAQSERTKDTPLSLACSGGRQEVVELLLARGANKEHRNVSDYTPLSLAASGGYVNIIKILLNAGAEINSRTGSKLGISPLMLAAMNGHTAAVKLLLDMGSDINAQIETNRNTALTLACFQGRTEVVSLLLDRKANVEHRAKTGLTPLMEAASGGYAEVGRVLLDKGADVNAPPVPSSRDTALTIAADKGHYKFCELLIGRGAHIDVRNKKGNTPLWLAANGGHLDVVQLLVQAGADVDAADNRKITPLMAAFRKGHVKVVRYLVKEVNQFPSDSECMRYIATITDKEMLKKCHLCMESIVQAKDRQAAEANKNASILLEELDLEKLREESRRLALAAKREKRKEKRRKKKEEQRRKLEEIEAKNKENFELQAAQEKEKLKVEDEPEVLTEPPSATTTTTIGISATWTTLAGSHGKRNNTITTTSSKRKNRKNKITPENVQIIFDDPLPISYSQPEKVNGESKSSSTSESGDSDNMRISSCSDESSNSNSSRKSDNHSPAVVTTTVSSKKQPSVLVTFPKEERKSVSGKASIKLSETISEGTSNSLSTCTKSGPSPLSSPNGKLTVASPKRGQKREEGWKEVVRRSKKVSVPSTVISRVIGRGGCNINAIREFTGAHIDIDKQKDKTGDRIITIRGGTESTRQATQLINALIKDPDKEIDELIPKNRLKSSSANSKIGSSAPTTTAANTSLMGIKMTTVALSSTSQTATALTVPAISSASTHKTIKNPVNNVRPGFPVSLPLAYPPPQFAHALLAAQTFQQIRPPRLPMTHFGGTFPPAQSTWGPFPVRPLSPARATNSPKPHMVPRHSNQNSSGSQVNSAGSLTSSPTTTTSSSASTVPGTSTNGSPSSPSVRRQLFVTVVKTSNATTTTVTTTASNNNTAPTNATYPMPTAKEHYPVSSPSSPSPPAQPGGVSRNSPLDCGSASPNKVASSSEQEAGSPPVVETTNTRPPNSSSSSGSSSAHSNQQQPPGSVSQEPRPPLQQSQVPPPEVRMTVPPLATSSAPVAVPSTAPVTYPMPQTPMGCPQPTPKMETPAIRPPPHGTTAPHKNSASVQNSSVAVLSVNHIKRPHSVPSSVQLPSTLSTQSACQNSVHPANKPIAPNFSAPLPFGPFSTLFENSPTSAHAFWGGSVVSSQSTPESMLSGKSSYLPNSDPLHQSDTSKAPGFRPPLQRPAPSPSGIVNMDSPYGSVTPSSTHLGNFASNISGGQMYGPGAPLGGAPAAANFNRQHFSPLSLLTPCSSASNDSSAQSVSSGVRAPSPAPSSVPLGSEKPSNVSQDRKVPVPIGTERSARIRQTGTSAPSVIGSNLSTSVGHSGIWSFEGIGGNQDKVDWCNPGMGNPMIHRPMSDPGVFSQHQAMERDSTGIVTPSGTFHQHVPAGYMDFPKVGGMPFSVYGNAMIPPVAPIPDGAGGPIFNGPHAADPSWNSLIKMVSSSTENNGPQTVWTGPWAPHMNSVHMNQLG
UniProt O60268: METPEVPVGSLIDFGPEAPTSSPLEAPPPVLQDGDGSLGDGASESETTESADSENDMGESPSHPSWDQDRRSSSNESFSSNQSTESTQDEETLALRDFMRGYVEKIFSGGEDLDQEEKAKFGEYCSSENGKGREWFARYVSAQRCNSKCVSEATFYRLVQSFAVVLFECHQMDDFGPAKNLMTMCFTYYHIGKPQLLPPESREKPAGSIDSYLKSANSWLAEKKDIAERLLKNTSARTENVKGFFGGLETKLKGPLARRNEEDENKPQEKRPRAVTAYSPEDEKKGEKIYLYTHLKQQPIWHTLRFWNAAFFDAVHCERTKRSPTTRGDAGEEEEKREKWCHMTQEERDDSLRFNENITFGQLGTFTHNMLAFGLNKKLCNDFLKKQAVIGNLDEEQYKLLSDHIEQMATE
UniProt O95059: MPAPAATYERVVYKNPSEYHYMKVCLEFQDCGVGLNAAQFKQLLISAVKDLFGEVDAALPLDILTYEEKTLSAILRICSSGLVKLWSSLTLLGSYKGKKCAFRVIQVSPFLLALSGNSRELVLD
UniProt O43929: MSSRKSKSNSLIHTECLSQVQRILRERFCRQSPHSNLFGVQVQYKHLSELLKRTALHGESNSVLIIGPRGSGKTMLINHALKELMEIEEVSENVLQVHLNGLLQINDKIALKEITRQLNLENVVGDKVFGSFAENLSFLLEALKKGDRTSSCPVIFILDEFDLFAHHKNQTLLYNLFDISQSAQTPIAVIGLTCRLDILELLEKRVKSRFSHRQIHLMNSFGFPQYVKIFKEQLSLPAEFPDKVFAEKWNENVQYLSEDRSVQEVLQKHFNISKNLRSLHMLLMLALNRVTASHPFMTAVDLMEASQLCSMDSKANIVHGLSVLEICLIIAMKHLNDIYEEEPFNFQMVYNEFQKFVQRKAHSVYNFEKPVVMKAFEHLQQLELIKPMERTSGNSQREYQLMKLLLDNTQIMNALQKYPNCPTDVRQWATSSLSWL

Compound: Nc1ncnc2c1ncn2[C@@H]1O[C@H](COP(=O)(O)OP(=O)(O)NP(=O)(O)O)[C@@H](O)[C@H]1O [adenylyl imidodiphosphate]
Assay: NP40-soluble protein abundance relative to vehicle (solubility fold change) (ratio); higher = more soluble protein in presence of AMP-PNP
Outline: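 Data come from three independent experiments in which Dounce-homogenised Jurkat crude lysate was treated at eight concentrations from 0.1 to 10 mM. Treatment ran 10 min at room temperature and then 3 min at 37 °C, after which 0.8% NP40 and benzonase were added for 60 min at 4 °C before ultracentrifugation. The supernatant underwent TMT labelling and LC-MS/MS, and vsn-normalised intensities were expressed as fold change against the detergent-processed vehicle in each replicate.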

## UniProt O43924 and related entries
concentration: 0.1mM
  NP40-soluble protein abundance: 1.02 ± 0.011
concentration: 0.5mM
  NP40-soluble protein abundance: 1.03 ± 0.074

## UniProt O75558
concentration: 0.1mM
  NP40-soluble protein abundance: 0.983 ± 0.02
concentration: 0.5mM
  NP40-soluble protein abundance: 1.02 ± 0.018

## UniProt O95294 and related entries
concentration: 0.1mM
  NP40-soluble protein abundance: 0.9967 ± 0.0035
concentration: 0.5mM
  NP40-soluble protein abundance: 1.01 ± 0.011

## UniProt O75143 and related entries
concentration: 0.1mM
  NP40-soluble protein abundance: 1.01 ± 0.03
concentration: 0.5mM
  NP40-soluble protein abundance: 0.999 ± 0.037

## UniProt O95466-2|O95466-3
concentration: 0.1mM
  NP40-soluble protein abundance: 1.006 ± 0.0066
concentration: 0.5mM
  NP40-soluble protein abundance: 1.02 ± 0.016

## CPNE3 (UniProt O75131)
concentration: 0.1mM
  NP40-soluble protein abundance: 1 ± 0.02
concentration: 0.5mM
  NP40-soluble protein abundance: 1 ± 0.052

## UniProt O60566 and related entries
concentration: 0.1mM
  NP40-soluble protein abundance: 1.014 ± 0.0087
concentration: 0.5mM
  NP40-soluble protein abundance: 0.98 ± 0.01

## STAMBP (UniProt O95630)
concentration: 0.1mM
  NP40-soluble protein abundance: 0.977 ± 0.014
concentration: 0.5mM
  NP40-soluble protein abundance: 1 ± 0.036

## UBXN7 (UniProt O94888)
concentration: 0.1mM
  NP40-soluble protein abundance: 0.9941 ± 0.0063
concentration: 0.5mM
  NP40-soluble protein abundance: 1.02 ± 0.044

## ATRN (UniProt O75882)
concentration: 0.1mM
  NP40-soluble protein abundance: 0.998 ± 0.017
concentration: 0.5mM
  NP40-soluble protein abundance: 0.993 ± 0.032

## PGLS (UniProt O95336)
concentration: 0.1mM
  NP40-soluble protein abundance: 0.998 ± 0.041
concentration: 0.5mM
  NP40-soluble protein abundance: 1.02 ± 0.048

## NBN (UniProt O60934)
concentration: 0.1mM
  NP40-soluble protein abundance: 0.9702 ± 0.0058
concentration: 0.5mM
  NP40-soluble protein abundance: 0.992 ± 0.016

## FARS2 (UniProt O95363)
concentration: 0.1mM
  NP40-soluble protein abundance: 1.02 ± 0.034
concentration: 0.5mM
  NP40-soluble protein abundance: 1 ± 0.11

## TMEM63A (UniProt O94886)
concentration: 0.1mM
  NP40-soluble protein abundance: 1.01 ± 0.018
concentration: 0.5mM
  NP40-soluble protein abundance: 0.964 ± 0.043

## UniProt O75179 and related entries
concentration: 0.1mM
  NP40-soluble protein abundance: 0.991 ± 0.015
concentration: 0.5mM
  NP40-soluble protein abundance: 1.01 ± 0.031

## UniProt O60268 and related entries
concentration: 0.1mM
  NP40-soluble protein abundance: 1 ± 0.047
concentration: 0.5mM
  NP40-soluble protein abundance: 1.01 ± 0.095

## RPP14 (UniProt O95059)
concentration: 0.1mM
  NP40-soluble protein abundance: 0.975 ± 0.03
concentration: 0.5mM
  NP40-soluble protein abundance: 1.01 ± 0.043

## ROCK2 (UniProt O75116)
concentration: 0.1mM
  NP40-soluble protein abundance: 0.996 ± 0.032
concentration: 0.5mM
  NP40-soluble protein abundance: 1.04 ± 0.072

## ATG7 (UniProt O95352)
concentration: 0.1mM
  NP40-soluble protein abundance: 1.01 ± 0.042
concentration: 0.5mM
  NP40-soluble protein abundance: 0.981 ± 0.083

## UniProt O75326 and related entries
concentration: 0.1mM
  NP40-soluble protein abundance: 1.004 ± 0.0063
concentration: 0.5mM
  NP40-soluble protein abundance: 1.007 ± 0.0033

## UniProt O43929 and related entries
concentration: 0.1mM
  NP40-soluble protein abundance: 0.973 ± 0.051
concentration: 0.5mM
  NP40-soluble protein abundance: 0.984 ± 0.067

## TGDS (UniProt O95455)
concentration: 0.1mM
  NP40-soluble protein abundance: 0.997 ± 0.024
concentration: 0.5mM
  NP40-soluble protein abundance: 0.994 ± 0.033
